Data taken from patent publication US8003694B2, “Crystal of hydroxynorephedrin derivative hydrochloride ¼ hydrate” (Kissei Pharmaceutical Co., Ltd., priority 2005, dated 2011).
Some results were stated once for a whole list of compounds, not compound by compound.

Assay: Solubility Test (shake flask at 37° C., HPLC)
Format: physicochemical
Conditions: 0.4 g in 20 mL water or The First Fluid
Procedure: Each crystal polymorph (0.4 g), which was prepared by the above method, was taken in 50 mL Erlenmeyer flask respectively, and to the mixture was added 20 mL of the mediums as defined below. The flask was shaken at 125 strokes per minute at 37° C. After 0.5, 1, 2 and 20 hours from the start of shaking, 1.5 mL of the suspension was filtered through a membrane filter (pore size: 0.2 μm). The concentration of the filtrate for each crystal polymorph was determined by HPLC method to determine the solubility. The concentration where the concentration became constant by the temporal measurements of the concentration was determined to be the solubility of each polymorph, and the results are shown in Table 1. […] In the cases of crystalline form F and amorphous form, since these samples were dissolved completely in each medium within 0.5 hours after the start of the test, additional samples were added appropriately to the test flasks at the point of 0.5 hours after the start and the solubility tests were continued. The mediums: water or the first fluid of disintegration test of Japanese Pharmacopoeia (hereinafter referred to as The First Fluid).

Structure (SMILES)	time to complete dissolution of sample in each medium [h]
CCOC(=O)COc1cc(C)c(CCN[C@@H](C)[C@H](O)c2ccc(O)cc2)cc1C.Cl [amorphous form, ethyl (−)-2-[4-[2-[[(1S,2R)-2-hydroxy-2-(4-hydroxyphenyl)-1-methylethyl]amino]ethyl]-2,5-dimethylphenoxy]acetate hydrochloride]	≤ 0.5
CCOC(=O)COc1cc(C)c(CCN[C@@H](C)[C@H](O)c2ccc(O)cc2)cc1C.Cl [crystal form F, ethyl (−)-2-[4-[2-[[(1S,2R)-2-hydroxy-2-(4-hydroxyphenyl)-1-methylethyl]amino]ethyl]-2,5-dimethylphenoxy]acetate hydrochloride ¼ hydrate]	≤ 0.5
